Library screen at single concentrations

By UniProt entry, the sequences of proteins in these tests, tags left out. Residues count along the entry.
UniProt A4I591, 1-473: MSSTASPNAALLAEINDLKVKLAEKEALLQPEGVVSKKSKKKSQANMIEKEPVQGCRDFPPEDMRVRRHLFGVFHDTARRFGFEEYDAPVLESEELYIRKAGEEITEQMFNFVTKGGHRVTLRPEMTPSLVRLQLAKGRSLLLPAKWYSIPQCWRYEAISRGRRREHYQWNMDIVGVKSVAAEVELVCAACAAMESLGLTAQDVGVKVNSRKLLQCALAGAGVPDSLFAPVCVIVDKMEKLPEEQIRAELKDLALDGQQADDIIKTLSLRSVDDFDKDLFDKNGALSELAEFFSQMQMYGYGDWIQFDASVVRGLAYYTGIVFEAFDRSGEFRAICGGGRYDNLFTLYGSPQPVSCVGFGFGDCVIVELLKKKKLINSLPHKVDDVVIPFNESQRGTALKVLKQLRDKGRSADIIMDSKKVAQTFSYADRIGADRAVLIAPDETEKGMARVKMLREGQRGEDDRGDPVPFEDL
UniProt P9WNZ1, whole entry: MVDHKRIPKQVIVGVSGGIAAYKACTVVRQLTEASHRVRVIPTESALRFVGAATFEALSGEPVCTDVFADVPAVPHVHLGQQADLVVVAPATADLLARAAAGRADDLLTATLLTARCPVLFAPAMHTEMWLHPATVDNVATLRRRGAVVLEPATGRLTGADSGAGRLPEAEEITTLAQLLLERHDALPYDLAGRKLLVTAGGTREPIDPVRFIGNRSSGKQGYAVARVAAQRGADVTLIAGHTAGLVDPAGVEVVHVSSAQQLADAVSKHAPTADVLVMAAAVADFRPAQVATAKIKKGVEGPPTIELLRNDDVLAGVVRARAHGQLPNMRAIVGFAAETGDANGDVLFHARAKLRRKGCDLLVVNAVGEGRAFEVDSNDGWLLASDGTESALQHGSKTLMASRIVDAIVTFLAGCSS

Source: ChEMBL document CHEMBL3988442, “University of Dundee, Small-Polar-MMV Screening Library” (2021).

LiHisRS: 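Histidine-tRNA ligase, Leishmania infantum (UniProt A4I591). Enzyme assay of histidyl-tRNA synthetase; the read-out is not stated. Compounds at 30 µM. The record gives no direction; compounds that gave an IC50 in retests scored well above the rest, so higher reads as stronger inhibition. The assay is labelled LdHisRS but filed under L. infantum. Size under these conditions: about 69,000 compounds, about 410 of them at 50% or above in at least one test.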
Leishmania in macrophages: 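Cell assay of Leishmania donovani living inside macrophages; the read-out is not stated. Compounds at 30 µM. Higher reads as stronger inhibition (inferred: compounds with an IC50 in retests scored well above the rest). Of about 69,000 compounds tested this way, about 1,000 (1.5%) reached 50% or more in at least one test.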
CoaBC: 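Enzyme assay of CoaBC with a phosphate dye (Biomol Green) read at 650 nm. Target: Coenzyme A biosynthesis protein CoaBC, Mycobacterium tuberculosis (UniProt P9WNZ1). Concentration: 30 µM. Direction is inferred from only a few compounds that gave an IC50; most scored high, so higher reads as stronger inhibition. Most strong results did not repeat in a second test. Size under these conditions: about 67,000 compounds, about 40 of them at 50% or above in at least one test.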

Results are given as percent effect.
The record does not define 0% and 100%; most values in the screen are far below 50% and negative numbers occur (in some assays of this library far below -100).
This is an unselected part of the compounds tested.
Two or more numbers in one place are separate tests of the same structure; such repeats can differ widely.
A dash means the value is not listed here; it may have been measured.

SMILES	LiHisRS	Leishmania in macrophages	CoaBC
CN1C(=O)CC(c2ccccc2)C12CCN(c1ncc(F)cn1)CC2 (centres unmarked)	20	38.48	-0.4926
CCc1nc(CN2CCCC(N(C)Cc3nc(C)c(C)o3)C2)no1 (centres unmarked)	14.81	-33.26	3.969
[H][C@@]12OCCN(CCOC)[C@@]1([H])CC[C@H]2OCc1cccc(C)n1	-	42.69	-
[H][C@@]12OCCN(Cc3cnn(C)c3)[C@@]1([H])CCC2Cn1cccn1 (some centres unmarked)	-	15.69 and 29.2	-
O=C(c1cnc(C2CC2)s1)N1CCCC1Cn1cccn1 (centres unmarked)	10.53	11.03	5.839
CCOc1ccccc1C(=O)N1CC(=O)N(C2CCC2)CC(O)C1 (centres unmarked)	14.29	10.19	-2.906
CC(=O)N1CCC(Nc2ccc(Br)cc2C#N)C1 (centres unmarked)	13.68	10.08	8.547
O=C(O)C(F)(F)F.[H][C@@]12CCCO[C@]1([H])[C@@H](NC(=O)N(C)C)CN2Cc1ccc2c(c1)OCO2	-	21.74	-
COCCNC(=O)CCNc1ccc(Cl)cn1	5.479	8.063	1.446
CCN1CC(C(=O)NCc2nc(C3CCCCC3)no2)CC1=O (centres unmarked)	8.197	8.485	-0.2558
[H][C@@]12C[C@@H](O)CN1C[C@H](Cc1ccccc1)N(Cc1cnc(CC)nc1)C2	-	24.87	-
O=C1[C@@H]2CCN(Cc3ccoc3)C[C@@H]2OCCN1Cc1cccc(F)c1	8.824	-	5.33
CSc1nc2ncc3c(=O)n(C)ccc3n2n1	19.57	-2.052	0.9685
CC(COCC(F)(F)F)NC(=O)c1ccc(-c2ccco2)[nH]c1=O (centres unmarked)	23.68	8.879	-5.242
CS(=O)(=O)CCN1C[C@H](NC(=O)c2cnc(O)cn2)[C@@H](C2CC2)C1	-11.83	-31.59	-0.3654
Cc1cnc(N2CCC3(CC2)CC3CNC(=O)C2CCC2)nc1.O=C(O)C(F)(F)F (centres unmarked)	-	41.5	-
CC(C)Oc1ccc(C(=O)Cn2cnnc2[S+](C)[O-])cc1 (centres unmarked)	9.836	-2	-1.288
COc1cccc(CNC(=O)CN2CCCCC2Cn2cccn2)c1 (centres unmarked)	10.67	23.4	11.79
CCS(=O)(=O)NC(CCSC)C(=O)Nc1ccc(F)cc1 (centres unmarked)	2.469	-37.86	1.665
Cc1cc(C(=O)N[C@H]2Cc3ccccc3[C@@H]2N)c(=O)[nH]c1C	26.23	-21.62	5.622
CC(=O)Nc1ccc(CNCC(O)c2ccc(Cl)cc2)cc1 (centres unmarked)	16.96	-0.7096	4.959
CS(=O)(=O)N1CCCC(c2cncc(Nc3ccccn3)n2)C1 (centres unmarked)	8.247	2.647 and 8.148	2.421
Cn1c(CN2CCCC(N3CCNC3=O)C2)cc(=O)n(C)c1=O (centres unmarked)	12.5	9.52	1.734
COc1cc(C(=O)N2CCCS2(=O)=O)ccc1OC(C)C	18.97	-6.253	1.828
[H][C@@]12CCN(c3cnccn3)C[C@@]1(C(=O)O)CCCN2Cc1cccnc1	-	-3.031	-
c1ccc(-n2ccc(CN3CCOC(Cn4cncn4)C3)n2)cc1 (centres unmarked)	8.475	15.47	-0.5249
Cc1nc(CNC(=O)N2CCN(c3ccc(Cl)cn3)CC2)no1	4.505	-6.718	-4.28
[H][C@@]12CN(Cc3ccoc3)CCO[C@]1([H])CN(C(=O)C1CC(F)(F)C1)C2	-	29.77	-
O=C(Nc1ccc(Cn2cccn2)cc1)N1CCC2(CC1)OCCO2	-4.444	-16.56	-2.206
CC(Cn1cccn1)NS(=O)(=O)Cc1ccc(F)cc1 (centres unmarked)	14.14	18.74	8.696
CCC(=O)N1CCc2onc(CNS(C)(=O)=O)c2C1	-3.96	-9.827	1.114
COC(=O)NCCC(=O)NC(c1ccc(Cl)cc1)C(F)(F)F (centres unmarked)	14.29	-16.03	7.78
CCN1CC(COC(=O)c2ccc(N(C)C)cc2F)CC1=O (centres unmarked)	8.333	23.8	-6.696
O=C1CC(c2cccnc2)c2c(c(C(=O)O)cn2-c2ccccc2F)N1 (centres unmarked)	20.65	-15.54	3.269
COc1ccc(CN2CCc3ncnc(C4CC4)c3CC2)cc1	24.47	-	-0.1616
Cc1ccc(NC2CCCN(C3Cc4ccccc4C3)C2)nn1 (centres unmarked)	2.5	23.72	4.845
[H][C@@]12CCC(=O)N(CCCOC)[C@]1([H])CCN(c1ccc(C(N)=O)cn1)C2	-	20.37	-
O=C1NC2(Cc3ccccc31)CN(CC1CCCC1)C2	0	19.42	-6.579
COCCCNC(=O)CN1CCOC(c2ccccc2)C1 (centres unmarked)	5	-9.764	1.392
Cc1cc(CN2CCCC(C)(CO)C2)ccc1F (centres unmarked)	7.547	31.69	0
CCN1CCC2(C=C(C(=O)NC3CC3)c3ccccc32)CC1	4.878	-	1.209
COc1cc(C)cc(C(C(=O)O)N(C)Cc2ccncc2C)c1OC (centres unmarked)	11.86	21.4	3.388
C1CN(CC2CC2)C(COCC2CC2)c2nnn(CC3CC3)c21 (centres unmarked)	20	-	5.882
COc1cccc(-c2nc3c([nH]2)CC(C)(C)CNC3=O)c1OC	45.78	6.614	-1.942
COc1ccccc1N(C)S(=O)(=O)c1cc(C(=O)O)cs1	28.36	3.132	6.024
CCn1nc(C)c(NC(=O)CN2CC[C@@H](F)C2)c1C	13.11	35.74	8.732
O=C(O)c1ccn(-c2ccccc2NS(=O)(=O)c2cccc(F)c2)n1	-4.464	-11.18	-0.4132
N#Cc1ccc(C(=O)N2CCOC[C@H](Oc3cnccn3)C2)cc1	21.62	21.29	17.09
Cc1nc(CN2CCCC2Cn2cncn2)no1 (centres unmarked)	14.29	1.047	2.915
CCc1onc(C)c1C(=O)N1CCN(c2ncc3c(n2)CCOC3)CC1.Cl	-	-9.374	-
Br.Cc1ccccc1OC1CCN(CC(=O)Nc2cnn(C)c2C)CC1	-	21.18	-
Cc1nn(C)c(Cl)c1C1CCCN1Cc1noc(C2CC2)n1 (centres unmarked)	18.42	24.66	-18.12
Cc1cc(C)n(CC2CN(CCOc3ccc(C#N)cc3)CCO2)n1 (centres unmarked)	11.4	18.48	-0.3911
O=C(O)C(F)(F)F.[H][C@@]12CN(Cc3ccoc3)CCO[C@]1([H])CN(C(=O)COC1CCCC1)C2	-	10.93	-
CN(C)C[C@@H]1CN(Cc2ccccc2C#N)C[C@@H]1CO	13.7	-11.66	10.45
CC(C)c1cc(C2CCN(Cc3cc(F)cc(F)c3)CC2)[nH]n1	11.43	17.68	3.736
CC[C@H]1CN(S(C)(=O)=O)CC[C@H]1CC(=O)NCCOC	27.78	-10.14	-0.2257
CC(C)c1noc(CCCC(=O)N2CCN(S(C)(=O)=O)CC2)n1	20	26.28	-1.531
COCCn1cnnc1C1CCCN(C(C)C)C1 (centres unmarked)	1.053	-10.67 and 5.123	-0.9732
COCCN1CCCC12CCCN(c1nncs1)C2 (centres unmarked)	2.655	18.79 and 10.87	9.053
O=C(C1CC1)N1CCC(Oc2ccccc2Cl)CC1	16.13	12.28	5.238
CN(CC1(O)CCCN(c2ccccn2)C1)C(=O)Cc1ccsc1 (centres unmarked)	8.333	13.07	2.222

The first 3 entries again:

SMILES,LiHisRS,Leishmania in macrophages,CoaBC
CN1C(=O)CC(c2ccccc2)C12CCN(c1ncc(F)cn1)CC2 (centres unmarked),20,38.48,-0.4926
CCc1nc(CN2CCCC(N(C)Cc3nc(C)c(C)o3)C2)no1 (centres unmarked),14.81,-33.26,3.969
[H][C@@]12OCCN(CCOC)[C@@]1([H])CC[C@H]2OCc1cccc(C)n1,-,42.69,-